{"sequences": {"note": "Chains of the proteins cited; added tags and fusions are not shown. Residues count along the entry.", "UniProt Q60841, residues 27-3461": "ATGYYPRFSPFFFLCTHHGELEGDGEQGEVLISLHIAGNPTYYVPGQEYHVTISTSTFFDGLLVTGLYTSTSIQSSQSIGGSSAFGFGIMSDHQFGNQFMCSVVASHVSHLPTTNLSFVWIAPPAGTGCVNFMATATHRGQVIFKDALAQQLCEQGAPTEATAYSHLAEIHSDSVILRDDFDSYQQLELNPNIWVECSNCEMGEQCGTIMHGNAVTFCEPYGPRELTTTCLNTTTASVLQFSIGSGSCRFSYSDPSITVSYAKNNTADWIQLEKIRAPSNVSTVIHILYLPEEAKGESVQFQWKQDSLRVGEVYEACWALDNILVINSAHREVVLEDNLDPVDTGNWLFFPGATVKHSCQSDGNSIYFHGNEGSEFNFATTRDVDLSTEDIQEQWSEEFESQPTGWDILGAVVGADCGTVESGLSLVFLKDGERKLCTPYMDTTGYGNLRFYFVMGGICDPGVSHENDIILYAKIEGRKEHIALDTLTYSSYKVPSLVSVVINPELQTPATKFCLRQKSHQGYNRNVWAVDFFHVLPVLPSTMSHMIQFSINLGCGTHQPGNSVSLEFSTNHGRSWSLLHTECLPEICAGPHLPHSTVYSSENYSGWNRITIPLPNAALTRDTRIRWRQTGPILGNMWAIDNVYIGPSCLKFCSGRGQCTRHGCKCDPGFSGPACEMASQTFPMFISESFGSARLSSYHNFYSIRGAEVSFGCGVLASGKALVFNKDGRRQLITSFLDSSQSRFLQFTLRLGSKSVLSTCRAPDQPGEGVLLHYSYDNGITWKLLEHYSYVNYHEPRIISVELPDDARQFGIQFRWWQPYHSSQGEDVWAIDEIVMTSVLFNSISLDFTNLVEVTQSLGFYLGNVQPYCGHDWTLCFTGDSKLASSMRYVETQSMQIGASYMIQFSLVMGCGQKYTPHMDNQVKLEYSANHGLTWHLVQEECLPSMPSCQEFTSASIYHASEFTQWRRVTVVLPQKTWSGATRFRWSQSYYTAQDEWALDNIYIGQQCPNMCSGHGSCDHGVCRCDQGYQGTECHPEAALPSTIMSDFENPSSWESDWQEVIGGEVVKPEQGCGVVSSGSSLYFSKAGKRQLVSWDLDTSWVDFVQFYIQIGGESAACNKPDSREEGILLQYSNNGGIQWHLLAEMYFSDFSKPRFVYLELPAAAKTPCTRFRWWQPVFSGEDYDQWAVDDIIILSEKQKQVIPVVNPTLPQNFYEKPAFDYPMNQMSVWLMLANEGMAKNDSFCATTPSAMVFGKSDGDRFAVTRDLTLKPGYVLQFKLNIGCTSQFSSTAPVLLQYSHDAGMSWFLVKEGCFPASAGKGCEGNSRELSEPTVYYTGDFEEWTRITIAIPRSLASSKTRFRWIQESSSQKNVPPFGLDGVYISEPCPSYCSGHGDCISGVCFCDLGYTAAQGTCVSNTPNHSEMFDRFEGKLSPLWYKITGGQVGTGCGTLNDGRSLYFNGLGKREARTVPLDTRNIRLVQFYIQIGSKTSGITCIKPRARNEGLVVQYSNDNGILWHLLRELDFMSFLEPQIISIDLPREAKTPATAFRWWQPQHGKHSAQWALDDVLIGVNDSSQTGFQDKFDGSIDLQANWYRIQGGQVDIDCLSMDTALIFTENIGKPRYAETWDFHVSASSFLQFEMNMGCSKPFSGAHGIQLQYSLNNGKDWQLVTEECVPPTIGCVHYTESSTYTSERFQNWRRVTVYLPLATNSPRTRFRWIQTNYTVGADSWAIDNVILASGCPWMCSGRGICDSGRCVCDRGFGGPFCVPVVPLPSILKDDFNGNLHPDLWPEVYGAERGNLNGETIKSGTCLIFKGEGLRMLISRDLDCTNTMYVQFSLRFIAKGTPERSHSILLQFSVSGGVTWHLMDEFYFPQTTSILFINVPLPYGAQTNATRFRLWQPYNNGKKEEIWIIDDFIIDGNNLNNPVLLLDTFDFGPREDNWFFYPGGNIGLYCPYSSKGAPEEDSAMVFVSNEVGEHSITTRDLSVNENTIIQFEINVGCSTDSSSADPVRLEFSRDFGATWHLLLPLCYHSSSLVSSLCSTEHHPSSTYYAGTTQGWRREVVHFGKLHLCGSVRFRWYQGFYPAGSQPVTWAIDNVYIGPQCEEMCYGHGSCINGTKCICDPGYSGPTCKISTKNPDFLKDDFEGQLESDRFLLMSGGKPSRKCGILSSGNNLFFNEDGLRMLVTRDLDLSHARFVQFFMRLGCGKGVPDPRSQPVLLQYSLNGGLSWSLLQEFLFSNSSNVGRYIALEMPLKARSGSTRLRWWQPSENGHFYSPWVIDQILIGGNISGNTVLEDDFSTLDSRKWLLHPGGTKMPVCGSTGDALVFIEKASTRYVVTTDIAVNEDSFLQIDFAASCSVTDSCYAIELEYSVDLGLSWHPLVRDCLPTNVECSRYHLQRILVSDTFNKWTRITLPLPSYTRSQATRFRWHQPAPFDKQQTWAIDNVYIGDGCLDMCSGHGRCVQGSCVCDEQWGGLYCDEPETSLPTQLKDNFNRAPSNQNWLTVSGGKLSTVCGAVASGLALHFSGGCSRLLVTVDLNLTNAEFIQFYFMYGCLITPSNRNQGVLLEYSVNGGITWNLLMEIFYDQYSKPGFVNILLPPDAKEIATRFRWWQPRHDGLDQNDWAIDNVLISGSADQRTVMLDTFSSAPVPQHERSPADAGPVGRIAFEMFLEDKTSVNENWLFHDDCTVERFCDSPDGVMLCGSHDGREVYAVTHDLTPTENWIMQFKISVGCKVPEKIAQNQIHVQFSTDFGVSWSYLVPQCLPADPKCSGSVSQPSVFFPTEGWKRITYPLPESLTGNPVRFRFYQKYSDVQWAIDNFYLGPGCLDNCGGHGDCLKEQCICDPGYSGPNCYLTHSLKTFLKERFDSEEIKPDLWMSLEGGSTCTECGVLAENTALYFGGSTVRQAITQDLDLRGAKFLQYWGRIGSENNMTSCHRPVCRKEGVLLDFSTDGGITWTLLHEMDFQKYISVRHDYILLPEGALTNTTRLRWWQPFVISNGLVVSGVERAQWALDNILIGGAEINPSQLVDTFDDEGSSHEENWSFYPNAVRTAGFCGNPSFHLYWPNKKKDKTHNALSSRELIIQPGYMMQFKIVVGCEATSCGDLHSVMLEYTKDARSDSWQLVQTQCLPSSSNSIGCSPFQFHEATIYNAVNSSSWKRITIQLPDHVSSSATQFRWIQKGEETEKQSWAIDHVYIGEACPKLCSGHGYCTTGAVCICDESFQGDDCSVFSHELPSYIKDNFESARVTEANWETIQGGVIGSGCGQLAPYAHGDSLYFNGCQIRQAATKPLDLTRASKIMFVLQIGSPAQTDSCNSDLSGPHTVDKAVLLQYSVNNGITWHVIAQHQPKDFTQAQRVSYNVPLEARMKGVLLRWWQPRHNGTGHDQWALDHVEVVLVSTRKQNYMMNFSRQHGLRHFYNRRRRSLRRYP", "UniProt P11627, residues 20-1123": "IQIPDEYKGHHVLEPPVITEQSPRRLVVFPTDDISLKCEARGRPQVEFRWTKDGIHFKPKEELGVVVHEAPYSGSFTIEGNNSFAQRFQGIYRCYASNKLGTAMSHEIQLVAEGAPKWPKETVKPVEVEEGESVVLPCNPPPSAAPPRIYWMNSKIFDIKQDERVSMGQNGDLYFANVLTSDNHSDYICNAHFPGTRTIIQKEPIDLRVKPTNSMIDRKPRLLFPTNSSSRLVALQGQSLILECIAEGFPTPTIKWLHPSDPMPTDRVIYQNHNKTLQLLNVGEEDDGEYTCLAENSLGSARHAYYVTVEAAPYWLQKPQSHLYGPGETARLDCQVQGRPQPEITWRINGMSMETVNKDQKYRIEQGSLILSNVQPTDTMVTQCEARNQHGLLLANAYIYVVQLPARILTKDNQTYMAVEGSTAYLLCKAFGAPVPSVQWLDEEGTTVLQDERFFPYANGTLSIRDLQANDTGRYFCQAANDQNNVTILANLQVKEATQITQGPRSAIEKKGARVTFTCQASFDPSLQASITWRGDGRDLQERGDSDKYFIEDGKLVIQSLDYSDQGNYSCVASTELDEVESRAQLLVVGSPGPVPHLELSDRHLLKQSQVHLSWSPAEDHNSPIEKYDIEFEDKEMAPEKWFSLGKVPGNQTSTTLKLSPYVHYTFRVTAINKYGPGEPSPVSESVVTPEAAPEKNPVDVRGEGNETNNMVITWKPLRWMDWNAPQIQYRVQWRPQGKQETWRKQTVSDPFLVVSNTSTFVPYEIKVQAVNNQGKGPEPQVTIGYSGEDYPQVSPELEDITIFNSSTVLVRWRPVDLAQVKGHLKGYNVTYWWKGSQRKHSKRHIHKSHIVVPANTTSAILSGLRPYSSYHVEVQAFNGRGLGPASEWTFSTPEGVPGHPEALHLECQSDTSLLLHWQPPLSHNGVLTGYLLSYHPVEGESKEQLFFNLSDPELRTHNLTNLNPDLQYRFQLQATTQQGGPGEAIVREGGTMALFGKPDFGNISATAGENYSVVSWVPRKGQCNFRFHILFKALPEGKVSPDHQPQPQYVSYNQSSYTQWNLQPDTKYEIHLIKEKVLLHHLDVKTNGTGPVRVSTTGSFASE"}, "source": "paper PMC5681625", "key": {"[1]": {"molecular_target": "purified recombinant Reelin (mouse) (UniProt Q60841)", "assay": "ELISA; purified recombinant Reelin substrate-coated on 384-well plates (4 °C overnight), blocked with 1% BSA in PBS; 5 µg of L1-Fc or Fc added, room temperature 1 h; detected with anti-Fc-HRP; both purified"}, "[2]": {"molecular_target": "full-length Reelin (mouse) (UniProt Q60841)", "assay": "ELISA; 5 µg of serum-free Reelin-containing HEK supernatant (concentrated 5-fold, dialysed) substrate-coated on 384-well plates; 5 µg of L1-Fc or Fc added, room temperature 1 h; detected with anti-Fc-HRP; only the binder purified"}, "[3]": {"molecular_target": "L1-Fc comprising the extracellular part of mouse L1 fused to Fc part of human IgG (mouse) (UniProt P11627)", "assay": "ELISA; L1-Fc or Fc substrate-coated; Reelin-containing HEK cell supernatant applied; detected with Reelin antibody G10; only the target purified"}, "[4]": {"molecular_target": "L1-Fc comprising the extracellular part of mouse L1 fused to Fc part of human IgG (mouse) (UniProt P11627)", "assay": "pull-down; L1-Fc or Fc on Protein A beads with supernatants of Reelin-expressing and Reelin-lacking HEK cells; immunoblot with Reelin antibody G10; only the target purified"}, "[5]": {"molecular_target": "L1-Fc comprising the extracellular part of mouse L1 fused to Fc part of human IgG (mouse) (UniProt P11627)", "assay": "ELISA; 5 µg of L1-Fc or Fc substrate-coated on 384-well plates; 5 µg of purified Reelin added, room temperature 1 h; detected with Reelin antibody G10; both purified"}}, "note": "Results are given in words; binding and its absence hold for the method and conditions named. For some assays here: Binding seen in cells or lysates may run through a third protein. Some binding calls cover weakened binding; strength is not graded here.", "data": [{"substance": "L1-Fc comprising the extracellular part of mouse L1 fused to Fc part of human IgG (from UniProt P11627 20-1123) (Fc fusion)", "values": [{"measurement": "binding", "setting": "[1]", "value": "binds"}, {"measurement": "binding", "setting": "[2]", "value": "binds"}]}, {"substance": "full-length Reelin (from UniProt Q60841 27-3461)", "values": [{"measurement": "binding", "setting": "[3]", "value": "binds"}, {"measurement": "binding", "setting": "[4]", "value": "binds"}]}, {"substance": "purified recombinant Reelin (from UniProt Q60841 27-3461)", "values": [{"measurement": "binding", "setting": "[5]", "value": "binds"}]}]}
